These are yes or no findings as the source states them, for the method shown. For some of these results: A result given as binding can be weak or reduced; the word gives no strength. For some of these results: Tags and fused reporters may be left off the sequences shown. For some of these results: Binding seen in cells or lysates may run through a third protein.
Experiments:
[1] = molecular target: T1, Era fused to SB (small bit of luciferase) (S. aureus) (UniProt Q2FGF6); assay: split reporter
T1 sequence: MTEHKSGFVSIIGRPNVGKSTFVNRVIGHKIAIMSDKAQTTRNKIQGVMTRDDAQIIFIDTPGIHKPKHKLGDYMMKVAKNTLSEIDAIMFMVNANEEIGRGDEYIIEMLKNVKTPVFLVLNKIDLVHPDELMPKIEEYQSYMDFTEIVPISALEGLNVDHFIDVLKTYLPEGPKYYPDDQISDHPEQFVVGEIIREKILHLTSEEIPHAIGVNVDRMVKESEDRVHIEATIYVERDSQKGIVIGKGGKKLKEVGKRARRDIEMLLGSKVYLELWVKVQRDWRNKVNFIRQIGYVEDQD

[2] = molecular target: T2, GST-Era (S. aureus) (UniProt Q2FGF6); assay: pull-down
T2 sequence: T1 sequence

[3] = molecular target: T3, Era-T25 (S. aureus) (UniProt Q2FGF6); assay: two-hybrid
T3 sequence: T1 sequence

binding [1] | binding [3] | Substance | further results
no binding |  | DgkA (split luciferase fusion) (from UniProt A0A0H2XF69) | 
 |  | His-tagged YbeY (S. aureus) | binding [2]: binds
 | no binding | RecO (bacterial two-hybrid fusion) (S. aureus) | 
no binding |  | RecO (split luciferase fusion) (S. aureus) | 
 | binds | T18-YbeZ (S. aureus) | 
no binding |  | YbeZ (split luciferase fusion) (S. aureus) | 

Substance | binding [1] | binding [3] | further results
T18-YbeY (S. aureus) |  | binds | 
